Assay results as given in PubChem BioAssay AID493014 (National Center for Advancing Translational Sciences (NCATS), 2011).
The list shows a part of the results. These are further read-outs of the screen, such as a control signal, another cell line or another target. No call is given for them. The list favours compounds with an active or inconclusive main result. Words in brackets tell the shape of the fitted curve; partial curves, single points and poor fits give uncertain potencies.

Experiment: qHTS Assay to Find Inhibitors of Chronic Active B-Cell Receptor Signaling
Details: ABC-DLBCL IkBa-CBG/CBR reporter, luminescence ratio (green luciferase fused to IkBa over red control in TMD8 lymphoma cells), 4 h
In short: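 Cell line TMD8 (human ABC DLBCL), stably expressing tet-inducible CBG68-IkBa fusion and CBR; IMDM/0.5% FBS; cpd up to 46 uM; dox induction, 4 h, 37C/5% CO2; dual luminescence; green/red ratio; MG132 control.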

[1] = measured here: CBR red luminescence, cell number
[2] = measured here: IkBa-CBG green luminescence

| Structure (SMILES) | AC50 [1] | AC50 [2] |
| --- | --- | --- |
| CC(C)NC(=O)COC(=O)c1ccc(O)cc1 | 3.16 µM [rising, partial curve, poor fit] |  |
| Cc1ccc2nc(N3C(=O)C(O)=C(C(=O)c4ccco4)C3c3cccs3)sc2c1 (centres undefined) | 14.1 µM [falling, partial curve, poor fit] |  |
| COc1cc(C(C(=O)NC2CCCC2)N(C(=O)c2snc(C(N)=O)c2N)C2CCCC2)cc(OC)c1OC (centres undefined) | 14.1 µM [rising, single point] |  |
| CCOC(=O)c1c(C)nc2sc3c(=O)n(-c4ccc(C(C)=O)cc4)cnc3c2c1-c1ccc(Cl)cc1 | 29.1 µM [falling, single point] |  |
| COc1cccc(NC(=O)CN2C(=O)c3cccnc3Oc3ccc(Cl)cc32)c1 | 0.891 µM [falling, full curve, poor fit] |  |
| Cc1ccc(CNC(=O)Cn2ccc3cc(S(=O)(=O)N4CCCCCC4)ccc32)cc1 | 35.5 µM [falling, single point] |  |
| CCOC(=O)c1c(NC(=O)Nc2cccc(Cl)c2)sc(C)c1C | 2.06 µM [rising, partial curve, poor fit] |  |
| CS(=O)(=O)c1ccc(Cl)c(NC(=O)CSc2nnc(C3CC3)n2C2CC2)c1 | 29.1 µM [rising, single point] |  |
| CCCCN(C)C(=O)Cn1ncc2c3ccccc3n(CCC)c2c1=O | 11.2 µM [falling, partial curve] |  |
| CC(=O)c1cccc(-n2nnnc2SCC(=O)Nc2cccc(NC(=O)c3ccco3)c2)c1 | 2 µM [falling, full curve] |  |
| C/C(CC(=O)Nc1cc(C)ccn1)=N\NC(=O)c1cccc(F)c1 | 11.2 µM [falling, partial curve, poor fit] |  |
| CCc1cccc(NC(=O)Cc2cn(C)c3ccccc23)c1 | 35.5 µM [falling, single point] |  |
| Cc1ccc2c(c1)/C(=C/c1ccccc1C)C(=O)N2 | 31.6 µM [falling, single point] |  |
| Cc1ccc(NC(=S)N2CCSC2c2cccs2)cc1 (centres undefined) | 35.5 µM [rising, single point] | 20 µM [falling, partial curve, poor fit] |
| Cc1cc(S(=O)(=O)N(Cc2cccs2)Cc2ccccc2F)ccc1-n1cnnn1 | 29.1 µM [falling, single point] | 23.1 µM [rising, partial curve, poor fit] |
| O=C(NCCc1ccc2c(c1)OCCO2)c1cc2ccccc2o1 | 25.1 µM [falling, single point] |  |
| S=C(Nc1cccnc1)NC1CCCC1 | 4.61 µM [rising, full curve, poor fit] |  |

Reprinted from above (two entries):

| Structure (SMILES) | AC50 [1] | AC50 [2] |
| --- | --- | --- |
| CC(=O)c1cccc(-n2nnnc2SCC(=O)Nc2cccc(NC(=O)c3ccco3)c2)c1 | 2 µM [falling, full curve] |  |
| C/C(CC(=O)Nc1cc(C)ccn1)=N\NC(=O)c1cccc(F)c1 | 11.2 µM [falling, partial curve, poor fit] |  |
